Experimental findings from paper PMC9324012 are described below.

Chains of the proteins cited; added tags and fusions are not shown.
UniProt Q15672: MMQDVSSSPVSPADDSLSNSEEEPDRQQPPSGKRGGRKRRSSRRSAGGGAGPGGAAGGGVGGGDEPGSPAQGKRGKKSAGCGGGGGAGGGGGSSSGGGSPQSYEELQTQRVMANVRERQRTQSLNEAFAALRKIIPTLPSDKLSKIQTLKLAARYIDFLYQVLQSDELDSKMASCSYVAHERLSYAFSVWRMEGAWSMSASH
UniProt Q09028: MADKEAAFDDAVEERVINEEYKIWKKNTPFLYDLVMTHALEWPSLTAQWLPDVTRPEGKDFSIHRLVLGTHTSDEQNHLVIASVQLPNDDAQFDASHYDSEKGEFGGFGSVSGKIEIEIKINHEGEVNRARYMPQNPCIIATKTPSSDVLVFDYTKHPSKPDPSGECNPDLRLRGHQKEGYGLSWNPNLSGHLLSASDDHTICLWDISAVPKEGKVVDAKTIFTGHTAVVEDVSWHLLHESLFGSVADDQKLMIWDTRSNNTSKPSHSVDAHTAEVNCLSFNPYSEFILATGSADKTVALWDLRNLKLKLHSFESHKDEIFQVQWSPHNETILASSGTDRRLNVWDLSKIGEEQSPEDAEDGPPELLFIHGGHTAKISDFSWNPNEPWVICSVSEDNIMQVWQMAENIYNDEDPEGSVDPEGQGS
UniProt Q92769: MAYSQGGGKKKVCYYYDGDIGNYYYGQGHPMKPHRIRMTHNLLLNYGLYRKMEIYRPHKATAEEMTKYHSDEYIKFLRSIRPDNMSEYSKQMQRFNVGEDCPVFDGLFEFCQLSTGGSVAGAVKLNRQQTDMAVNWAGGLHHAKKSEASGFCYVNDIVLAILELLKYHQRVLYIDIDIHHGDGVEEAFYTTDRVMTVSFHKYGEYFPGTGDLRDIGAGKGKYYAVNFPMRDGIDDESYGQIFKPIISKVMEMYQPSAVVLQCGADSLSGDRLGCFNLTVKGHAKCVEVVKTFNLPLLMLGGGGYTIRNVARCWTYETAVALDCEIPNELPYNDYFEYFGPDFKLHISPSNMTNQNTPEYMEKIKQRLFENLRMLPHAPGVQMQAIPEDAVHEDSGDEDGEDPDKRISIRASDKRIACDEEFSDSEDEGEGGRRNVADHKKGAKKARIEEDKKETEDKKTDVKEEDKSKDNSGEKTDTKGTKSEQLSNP

The target in assay [1] is FLAG-tagged TWIST1 (UniProt Q15672). As to the kind of experiment: co-IP; affinity purification from SW480 cells overexpressing FLAG-TWIST1 alone (no ZEB2 overexpression), Western blot. Background: Immunoblotting shows a protein as a band on a membrane.
Assay [2] addresses T1, ZEB2 immunoprecipitated from HT29, HCT116 and SW620 cells (UniProt A0JP08).
T1 sequence: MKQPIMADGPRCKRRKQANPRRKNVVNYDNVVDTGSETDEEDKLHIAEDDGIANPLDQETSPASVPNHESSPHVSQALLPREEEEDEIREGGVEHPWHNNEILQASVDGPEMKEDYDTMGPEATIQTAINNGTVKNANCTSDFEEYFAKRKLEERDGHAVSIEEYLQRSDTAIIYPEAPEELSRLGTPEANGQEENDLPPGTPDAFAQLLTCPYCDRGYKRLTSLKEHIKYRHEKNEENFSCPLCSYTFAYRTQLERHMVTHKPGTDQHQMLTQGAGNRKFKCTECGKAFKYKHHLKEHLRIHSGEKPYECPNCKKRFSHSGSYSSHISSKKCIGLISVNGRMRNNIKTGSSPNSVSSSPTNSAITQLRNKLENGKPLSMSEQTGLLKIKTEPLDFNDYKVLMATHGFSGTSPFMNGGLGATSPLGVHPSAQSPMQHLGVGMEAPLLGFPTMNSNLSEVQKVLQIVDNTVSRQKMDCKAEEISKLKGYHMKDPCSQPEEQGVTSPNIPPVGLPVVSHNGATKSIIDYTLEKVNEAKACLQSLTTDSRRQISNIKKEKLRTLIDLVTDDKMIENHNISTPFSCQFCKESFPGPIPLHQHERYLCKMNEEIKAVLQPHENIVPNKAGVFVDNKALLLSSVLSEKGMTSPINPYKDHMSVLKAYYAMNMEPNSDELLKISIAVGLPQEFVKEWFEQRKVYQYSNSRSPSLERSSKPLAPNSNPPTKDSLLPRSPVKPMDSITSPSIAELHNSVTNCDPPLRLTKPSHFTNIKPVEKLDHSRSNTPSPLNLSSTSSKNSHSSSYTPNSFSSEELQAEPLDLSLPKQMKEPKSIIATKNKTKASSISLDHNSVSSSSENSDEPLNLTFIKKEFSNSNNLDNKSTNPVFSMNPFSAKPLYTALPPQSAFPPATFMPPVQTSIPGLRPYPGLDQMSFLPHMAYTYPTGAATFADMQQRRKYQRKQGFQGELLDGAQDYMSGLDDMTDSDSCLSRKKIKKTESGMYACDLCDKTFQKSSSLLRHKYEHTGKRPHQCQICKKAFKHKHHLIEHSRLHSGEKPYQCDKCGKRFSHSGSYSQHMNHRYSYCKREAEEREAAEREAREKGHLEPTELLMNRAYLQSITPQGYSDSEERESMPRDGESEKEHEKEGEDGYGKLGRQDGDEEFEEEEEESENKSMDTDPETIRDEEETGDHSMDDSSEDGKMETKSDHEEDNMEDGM
The experiment in a line: co-IP; immunoprecipitation of ZEB2 from HT29, HCT116 and SW620 cells, Western blot (Supplementary Figure S7).

Assay [3] concerns the target T2, HA-tagged ZEB2 (Zinc finger E-box-binding homeobox 2) (UniProt A0JP08).
T2 sequence: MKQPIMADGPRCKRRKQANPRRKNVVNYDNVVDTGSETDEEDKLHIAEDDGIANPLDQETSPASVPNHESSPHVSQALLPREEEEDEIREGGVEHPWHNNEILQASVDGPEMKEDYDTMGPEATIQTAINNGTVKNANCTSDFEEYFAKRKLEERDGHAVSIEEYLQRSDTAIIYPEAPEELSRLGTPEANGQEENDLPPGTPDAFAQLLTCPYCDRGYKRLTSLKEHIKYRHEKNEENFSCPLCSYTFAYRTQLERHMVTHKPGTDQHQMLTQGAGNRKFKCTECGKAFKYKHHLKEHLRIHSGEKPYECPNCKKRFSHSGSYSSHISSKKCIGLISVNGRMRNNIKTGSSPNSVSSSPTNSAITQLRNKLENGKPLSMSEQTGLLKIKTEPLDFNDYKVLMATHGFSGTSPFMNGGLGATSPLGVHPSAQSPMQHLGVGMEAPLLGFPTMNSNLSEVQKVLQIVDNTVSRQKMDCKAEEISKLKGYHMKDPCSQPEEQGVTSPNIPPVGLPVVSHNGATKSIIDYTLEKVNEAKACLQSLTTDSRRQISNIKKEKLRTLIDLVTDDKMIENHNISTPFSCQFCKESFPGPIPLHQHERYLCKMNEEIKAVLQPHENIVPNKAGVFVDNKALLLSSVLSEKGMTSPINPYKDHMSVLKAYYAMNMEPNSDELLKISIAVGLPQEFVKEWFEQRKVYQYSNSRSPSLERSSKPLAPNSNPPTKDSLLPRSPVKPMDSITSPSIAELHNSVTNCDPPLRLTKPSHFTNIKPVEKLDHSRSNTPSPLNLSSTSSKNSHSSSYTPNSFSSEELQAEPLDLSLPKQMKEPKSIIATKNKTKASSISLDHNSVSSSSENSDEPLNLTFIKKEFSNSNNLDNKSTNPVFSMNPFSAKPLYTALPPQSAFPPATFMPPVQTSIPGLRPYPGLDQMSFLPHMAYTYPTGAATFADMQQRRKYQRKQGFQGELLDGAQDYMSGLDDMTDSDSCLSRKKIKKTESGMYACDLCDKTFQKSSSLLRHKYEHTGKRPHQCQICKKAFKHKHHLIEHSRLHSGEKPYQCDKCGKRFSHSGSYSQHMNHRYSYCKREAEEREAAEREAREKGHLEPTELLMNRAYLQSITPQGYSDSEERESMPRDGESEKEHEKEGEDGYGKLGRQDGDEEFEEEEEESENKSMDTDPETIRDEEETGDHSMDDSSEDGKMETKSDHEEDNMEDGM
As to the kind of experiment: co-IP; whole-cell lysates of SW480 cells overexpressing ZEB2 (without or with overexpressed TWIST1) immunoprecipitated for ZEB2, Western blot of the precipitates; IgG as negative control.

Assay [4] has as its target T3, GST/His-fused ZEB2 purified from E. coli (UniProt A0JP08).
T3 sequence: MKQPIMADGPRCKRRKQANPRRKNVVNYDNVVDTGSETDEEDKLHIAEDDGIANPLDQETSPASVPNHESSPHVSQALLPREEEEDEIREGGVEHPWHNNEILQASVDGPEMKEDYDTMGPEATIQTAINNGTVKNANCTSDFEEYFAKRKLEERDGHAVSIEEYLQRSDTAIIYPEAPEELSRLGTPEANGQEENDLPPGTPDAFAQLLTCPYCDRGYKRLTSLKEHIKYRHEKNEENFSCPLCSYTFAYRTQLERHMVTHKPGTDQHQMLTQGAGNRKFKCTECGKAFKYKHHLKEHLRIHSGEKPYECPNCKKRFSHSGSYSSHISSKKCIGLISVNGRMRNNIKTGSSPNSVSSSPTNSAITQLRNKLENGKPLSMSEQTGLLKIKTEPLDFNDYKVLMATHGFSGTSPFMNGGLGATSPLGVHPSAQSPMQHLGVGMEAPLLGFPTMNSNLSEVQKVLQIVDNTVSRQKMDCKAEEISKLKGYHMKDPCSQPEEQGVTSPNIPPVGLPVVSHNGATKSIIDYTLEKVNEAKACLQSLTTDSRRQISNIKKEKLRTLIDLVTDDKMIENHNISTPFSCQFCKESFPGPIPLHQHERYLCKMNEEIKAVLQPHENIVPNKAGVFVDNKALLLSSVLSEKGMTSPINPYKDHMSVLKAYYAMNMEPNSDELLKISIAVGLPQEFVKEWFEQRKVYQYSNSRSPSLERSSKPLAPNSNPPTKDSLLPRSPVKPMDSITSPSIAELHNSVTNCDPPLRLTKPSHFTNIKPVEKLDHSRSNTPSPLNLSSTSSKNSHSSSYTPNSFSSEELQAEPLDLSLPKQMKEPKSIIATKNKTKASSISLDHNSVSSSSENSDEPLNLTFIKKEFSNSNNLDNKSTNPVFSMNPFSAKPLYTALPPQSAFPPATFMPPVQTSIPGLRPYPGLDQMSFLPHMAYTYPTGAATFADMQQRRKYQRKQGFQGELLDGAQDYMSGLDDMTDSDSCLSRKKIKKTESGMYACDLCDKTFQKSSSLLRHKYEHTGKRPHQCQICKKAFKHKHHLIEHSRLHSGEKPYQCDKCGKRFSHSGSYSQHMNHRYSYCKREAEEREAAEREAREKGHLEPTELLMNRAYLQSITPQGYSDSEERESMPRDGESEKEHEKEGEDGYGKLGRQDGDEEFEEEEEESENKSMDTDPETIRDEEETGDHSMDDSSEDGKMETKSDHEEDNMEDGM
As to the kind of experiment: pull-down; GST pull-down: GST-fused proteins mixed with 6*His-fused proteins, all purified from E. coli; glutathione beads 4 h, five washes, Western blot; both purified.

Assay [5] deals with FLAG-tagged TWIST1 (UniProt Q15672). As to the kind of experiment: co-IP; SW480 cells overexpressing both FLAG-tagged TWIST1 and HA-tagged ZEB2; extracts immunoprecipitated with FLAG antibody, Western blot.

These are yes or no findings as the source states them, for the method shown. For some of these results: In cells and extracts the contact can be indirect. Some results given as binding are weak or reduced against the parent protein; the word gives no strength. For some of these results: Where a sequence is shown, tags or fusion partners need not be part of it.

For the molecule “Histone-binding protein RBBP4 (RbAp48), endogenous (from UniProt Q09028 1-425)”, the binding result in assay [1], in assay [2] and in assay [3] was “binds” throughout.

Regarding “HDAC2, endogenous (from UniProt Q92769 1-488) (enzyme)”, the binding result in assay [2] and in assay [3] was “binds” each time.

As for “GST/His-fused TWIST1 purified from E. coli (from UniProt Q15672 1-202)”, in assay [4], the binding result is listed as “binds”.

B1: HA-tagged ZEB2 (Zinc finger E-box-binding homeobox 2) (protein, UniProt A0JP08 1-1213)
chain: MKQPIMADGPRCKRRKQANPRRKNVVNYDNVVDTGSETDEEDKLHIAEDDGIANPLDQETSPASVPNHESSPHVSQALLPREEEEDEIREGGVEHPWHNNEILQASVDGPEMKEDYDTMGPEATIQTAINNGTVKNANCTSDFEEYFAKRKLEERDGHAVSIEEYLQRSDTAIIYPEAPEELSRLGTPEANGQEENDLPPGTPDAFAQLLTCPYCDRGYKRLTSLKEHIKYRHEKNEENFSCPLCSYTFAYRTQLERHMVTHKPGTDQHQMLTQGAGNRKFKCTECGKAFKYKHHLKEHLRIHSGEKPYECPNCKKRFSHSGSYSSHISSKKCIGLISVNGRMRNNIKTGSSPNSVSSSPTNSAITQLRNKLENGKPLSMSEQTGLLKIKTEPLDFNDYKVLMATHGFSGTSPFMNGGLGATSPLGVHPSAQSPMQHLGVGMEAPLLGFPTMNSNLSEVQKVLQIVDNTVSRQKMDCKAEEISKLKGYHMKDPCSQPEEQGVTSPNIPPVGLPVVSHNGATKSIIDYTLEKVNEAKACLQSLTTDSRRQISNIKKEKLRTLIDLVTDDKMIENHNISTPFSCQFCKESFPGPIPLHQHERYLCKMNEEIKAVLQPHENIVPNKAGVFVDNKALLLSSVLSEKGMTSPINPYKDHMSVLKAYYAMNMEPNSDELLKISIAVGLPQEFVKEWFEQRKVYQYSNSRSPSLERSSKPLAPNSNPPTKDSLLPRSPVKPMDSITSPSIAELHNSVTNCDPPLRLTKPSHFTNIKPVEKLDHSRSNTPSPLNLSSTSSKNSHSSSYTPNSFSSEELQAEPLDLSLPKQMKEPKSIIATKNKTKASSISLDHNSVSSSSENSDEPLNLTFIKKEFSNSNNLDNKSTNPVFSMNPFSAKPLYTALPPQSAFPPATFMPPVQTSIPGLRPYPGLDQMSFLPHMAYTYPTGAATFADMQQRRKYQRKQGFQGELLDGAQDYMSGLDDMTDSDSCLSRKKIKKTESGMYACDLCDKTFQKSSSLLRHKYEHTGKRPHQCQICKKAFKHKHHLIEHSRLHSGEKPYQCDKCGKRFSHSGSYSQHMNHRYSYCKREAEEREAAEREAREKGHLEPTELLMNRAYLQSITPQGYSDSEERESMPRDGESEKEHEKEGEDGYGKLGRQDGDEEFEEEEEESENKSMDTDPETIRDEEETGDHSMDDSSEDGKMETKSDHEEDNMEDGM
With B1, in assay [5], the binding result was “binds”.
